The text below walks through data of paper PMC7334207, “Select amino acids in DGCR8 are essential for the UGU-pri-miRNA interaction and processing” (Communications Biology, 2020).

The target of test [1] is T1, protein G-tagged G478del–WT (human) (UniProt Q8WYQ5).
T1 sequence: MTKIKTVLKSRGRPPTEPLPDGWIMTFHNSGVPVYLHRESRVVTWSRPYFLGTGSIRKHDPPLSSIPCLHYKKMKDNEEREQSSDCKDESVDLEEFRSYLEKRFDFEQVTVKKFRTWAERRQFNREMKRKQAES
Description: pull-down; tandem affinity purification from E. coli co-expressing both subunits: Ni2+-agarose (captures the 10×His-tagged mut1), then IgG–sepharose (captures the protein G-tagged WT), release with human Rhinovirus 3C protease at 4 °C overnight, then S-cation exchange column.

For test [2], the target named is T2, protein G-tagged G4–WT (human) (UniProt Q8WYQ5).
T2 sequence: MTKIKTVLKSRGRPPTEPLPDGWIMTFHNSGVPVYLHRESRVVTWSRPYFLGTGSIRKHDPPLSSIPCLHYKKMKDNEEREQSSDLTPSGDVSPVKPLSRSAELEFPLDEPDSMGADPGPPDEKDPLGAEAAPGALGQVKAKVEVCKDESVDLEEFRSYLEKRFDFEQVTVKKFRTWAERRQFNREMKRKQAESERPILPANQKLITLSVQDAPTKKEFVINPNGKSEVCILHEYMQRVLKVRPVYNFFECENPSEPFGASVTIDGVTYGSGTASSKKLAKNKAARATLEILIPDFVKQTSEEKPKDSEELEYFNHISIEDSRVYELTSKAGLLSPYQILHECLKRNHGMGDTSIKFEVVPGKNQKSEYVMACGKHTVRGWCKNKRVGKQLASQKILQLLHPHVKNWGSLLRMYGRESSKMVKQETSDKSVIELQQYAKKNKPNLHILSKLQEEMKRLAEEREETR
Described as above.

Changes are numbered by the printed parent chain. Results are given in words; binding and its absence hold for the method and conditions named. In cells and extracts the contact can be indirect. Some binding calls cover weakened binding; strength is not graded here. Tags and fused reporters may be left off the sequences shown.

B1: G478del-mut1, G478del with AGQ in the 461–463 region instead of WAE (domain or fragment, human, UniProt Q8WYQ5 285-478, looked up)
chain: T1 sequence with W117A, A118G, E119Q
notes: Associated with hemin; source: E. coli, purified (as described for G478del)
Take B1: the binding entry in test [1] is given as “binds”.

B2: 10×His-tagged G4–mut1 (domain or fragment, UniProt Q8WYQ5 285-750)
chain: T2 sequence with W177A, A178G, E179Q
As to B2, in test [2], the binding result was “binds”.
